These are yes or no findings as the source states them, for the method shown. Binding seen in cells or lysates may run through a third protein. Some entries that bind do so weakly or less than the wild type.

Chains of the proteins cited; added tags and fusions are not shown. Residues count along the entry.
UniProt Q01097, residues 27-1482: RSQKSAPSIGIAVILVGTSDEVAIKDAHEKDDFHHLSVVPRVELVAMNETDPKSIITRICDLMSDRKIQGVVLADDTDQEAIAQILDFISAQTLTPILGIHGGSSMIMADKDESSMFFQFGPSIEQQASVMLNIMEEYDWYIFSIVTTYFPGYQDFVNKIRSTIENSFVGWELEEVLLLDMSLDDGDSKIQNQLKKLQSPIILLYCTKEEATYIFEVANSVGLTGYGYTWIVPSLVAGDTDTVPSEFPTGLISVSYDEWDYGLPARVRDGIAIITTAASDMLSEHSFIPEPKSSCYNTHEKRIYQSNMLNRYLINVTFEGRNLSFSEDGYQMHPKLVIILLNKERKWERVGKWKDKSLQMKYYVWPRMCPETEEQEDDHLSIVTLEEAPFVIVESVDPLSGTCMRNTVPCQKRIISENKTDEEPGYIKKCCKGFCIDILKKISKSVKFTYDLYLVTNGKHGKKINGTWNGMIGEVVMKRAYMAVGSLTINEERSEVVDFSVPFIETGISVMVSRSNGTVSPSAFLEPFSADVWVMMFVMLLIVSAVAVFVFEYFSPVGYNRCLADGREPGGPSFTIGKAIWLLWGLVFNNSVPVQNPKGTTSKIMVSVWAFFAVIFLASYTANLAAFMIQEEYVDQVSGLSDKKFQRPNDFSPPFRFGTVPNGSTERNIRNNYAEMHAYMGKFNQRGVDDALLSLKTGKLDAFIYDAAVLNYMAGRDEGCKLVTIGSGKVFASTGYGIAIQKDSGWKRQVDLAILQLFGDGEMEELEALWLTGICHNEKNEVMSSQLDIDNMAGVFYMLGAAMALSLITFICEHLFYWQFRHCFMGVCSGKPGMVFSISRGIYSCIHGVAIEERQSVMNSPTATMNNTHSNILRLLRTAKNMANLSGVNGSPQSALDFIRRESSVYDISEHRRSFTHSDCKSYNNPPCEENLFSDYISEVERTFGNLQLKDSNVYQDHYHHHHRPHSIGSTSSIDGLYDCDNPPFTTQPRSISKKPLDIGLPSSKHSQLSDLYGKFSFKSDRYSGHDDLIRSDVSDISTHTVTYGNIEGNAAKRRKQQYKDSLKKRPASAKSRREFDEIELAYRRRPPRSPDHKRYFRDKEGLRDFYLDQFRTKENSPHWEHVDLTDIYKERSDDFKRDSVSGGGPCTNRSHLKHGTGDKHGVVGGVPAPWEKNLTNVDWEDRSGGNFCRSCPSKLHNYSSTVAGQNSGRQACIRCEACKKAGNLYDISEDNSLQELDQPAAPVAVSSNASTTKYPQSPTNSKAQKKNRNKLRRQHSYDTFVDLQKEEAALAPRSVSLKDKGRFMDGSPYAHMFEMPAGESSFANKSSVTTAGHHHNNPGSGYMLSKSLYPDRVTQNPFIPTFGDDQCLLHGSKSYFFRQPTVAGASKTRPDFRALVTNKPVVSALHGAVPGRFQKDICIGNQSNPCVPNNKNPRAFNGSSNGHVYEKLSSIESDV
UniProt P15209, residues 32-821: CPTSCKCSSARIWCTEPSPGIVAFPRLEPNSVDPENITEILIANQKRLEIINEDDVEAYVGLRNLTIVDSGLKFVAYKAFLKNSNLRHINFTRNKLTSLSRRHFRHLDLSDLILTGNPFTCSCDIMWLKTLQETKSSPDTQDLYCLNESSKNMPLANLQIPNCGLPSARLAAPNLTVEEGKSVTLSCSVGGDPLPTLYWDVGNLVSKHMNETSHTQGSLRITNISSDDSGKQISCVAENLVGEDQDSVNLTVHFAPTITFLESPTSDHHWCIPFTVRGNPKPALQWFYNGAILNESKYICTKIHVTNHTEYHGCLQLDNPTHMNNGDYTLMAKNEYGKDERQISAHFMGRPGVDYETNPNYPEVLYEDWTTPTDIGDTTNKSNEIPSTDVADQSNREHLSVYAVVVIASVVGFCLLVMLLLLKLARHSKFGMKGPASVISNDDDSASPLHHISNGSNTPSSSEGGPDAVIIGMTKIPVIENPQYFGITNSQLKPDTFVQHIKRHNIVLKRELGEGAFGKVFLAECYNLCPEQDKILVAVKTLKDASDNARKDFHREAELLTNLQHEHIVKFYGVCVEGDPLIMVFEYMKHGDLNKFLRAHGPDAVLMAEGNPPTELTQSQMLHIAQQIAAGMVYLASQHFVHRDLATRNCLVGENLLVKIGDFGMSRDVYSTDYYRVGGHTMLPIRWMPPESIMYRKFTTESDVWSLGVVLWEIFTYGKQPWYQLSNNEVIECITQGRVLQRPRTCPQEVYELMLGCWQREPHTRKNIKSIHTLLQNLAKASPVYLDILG
UniProt Q9EPR5, residues 50-1159: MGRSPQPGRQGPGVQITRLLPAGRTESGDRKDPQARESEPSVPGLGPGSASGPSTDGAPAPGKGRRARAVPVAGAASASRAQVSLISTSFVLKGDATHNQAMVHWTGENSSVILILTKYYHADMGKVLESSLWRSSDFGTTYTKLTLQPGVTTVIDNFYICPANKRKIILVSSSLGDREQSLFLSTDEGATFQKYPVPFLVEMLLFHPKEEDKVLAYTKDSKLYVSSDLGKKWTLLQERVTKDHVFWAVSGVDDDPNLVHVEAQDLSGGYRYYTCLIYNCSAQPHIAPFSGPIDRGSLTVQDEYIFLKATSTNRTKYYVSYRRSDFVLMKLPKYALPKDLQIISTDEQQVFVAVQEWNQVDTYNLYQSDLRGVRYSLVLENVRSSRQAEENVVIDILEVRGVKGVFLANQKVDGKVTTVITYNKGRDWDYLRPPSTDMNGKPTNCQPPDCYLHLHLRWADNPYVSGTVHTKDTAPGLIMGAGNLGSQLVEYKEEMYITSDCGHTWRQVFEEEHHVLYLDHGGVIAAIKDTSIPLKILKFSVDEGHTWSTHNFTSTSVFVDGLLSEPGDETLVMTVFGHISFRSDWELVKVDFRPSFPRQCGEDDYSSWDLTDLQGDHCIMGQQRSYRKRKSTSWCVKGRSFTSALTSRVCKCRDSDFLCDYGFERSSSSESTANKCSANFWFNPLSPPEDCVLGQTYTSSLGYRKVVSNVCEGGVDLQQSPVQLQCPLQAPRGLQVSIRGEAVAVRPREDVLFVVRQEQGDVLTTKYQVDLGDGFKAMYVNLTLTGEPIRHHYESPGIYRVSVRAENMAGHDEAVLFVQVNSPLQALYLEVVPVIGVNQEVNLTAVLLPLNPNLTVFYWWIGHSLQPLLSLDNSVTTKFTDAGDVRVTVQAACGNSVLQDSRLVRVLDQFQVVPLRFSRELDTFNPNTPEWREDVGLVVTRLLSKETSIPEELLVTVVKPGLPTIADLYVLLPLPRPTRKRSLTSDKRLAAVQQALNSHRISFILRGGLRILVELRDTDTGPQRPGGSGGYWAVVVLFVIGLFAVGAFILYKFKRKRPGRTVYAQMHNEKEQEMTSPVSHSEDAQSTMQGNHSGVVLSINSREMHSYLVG

Our source for the binding values is article doi:10.1101/2021.11.03.466767.

Assay [1] concerns the target Glutamate Ionotropic Receptor NMDA Type Subunit 2B (GluN2B), mouse (mouse (endogenous in dorsal striatum)) (UniProt Q01097). Kind of assay: proximity ligation.
For assay [2], the target named is full length Tropomyosin related kinase receptor B (TrkB-FL), mouse (mouse (endogenous in dorsal striatum)) (UniProt P15209). Briefly: co-IP.

Turning to “Sortilin Related VPS10 Domain Containing Receptor 2 (SorCS2), mouse (from UniProt Q9EPR5 50-1159)”, the binding result in assay [1] and in assay [2] was “binds” each time.
